Laboratory results taken from paper PMC4027156.
Numbering of substitutions follows the chain as printed. For some assays here: A negative result means that nothing was seen under these conditions. For some assays here: At least one verdict rests on a figure or table, not on a statement of the authors. Tags and fusion partners may be left off the protein sequences shown. For some assays here: The comparison behind a weaker result is the experiment's own reference, which may not be listed here. For some assays here: For at least one entry, the source does not settle the construct or the ends of the probe.

Tests used:
[1] = target: T1, caZαPKZ WT (Carassius auratus) (UniProt Q7T2M9); assay: X-ray crystallography (1.7 A); conditions: Mn2+; recombinant protein; residues 1-75; protein details: His tag (pET28a), thrombin-treated
T1 sequence (looked up): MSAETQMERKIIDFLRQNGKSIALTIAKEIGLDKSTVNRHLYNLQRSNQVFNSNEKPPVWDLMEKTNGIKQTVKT

[2] = target: T2, caZαPKZ K56R (Carassius auratus) (UniProt Q7T2M9); assay: CD B-to-Z transition; conditions: transition twice as fast as WT; recombinant protein; residues 1-75; protein details: His tag (pET28a), thrombin-treated
T2 sequence (looked up): T1 sequence (looked up) with K56R

[3] = target: T3, caZαPKZ R39A (Carassius auratus) (UniProt Q7T2M9); assay: CD B-to-Z transition; conditions: recombinant protein; residues 1-75; protein details: His tag (pET28a), thrombin-treated
T3 sequence (looked up): T1 sequence (looked up) with R39A

[4] = target: T4, caZαPKZ S35K (Carassius auratus) (UniProt Q7T2M9); assay: CD B-to-Z transition; conditions: faster than WT; recombinant protein; residues 1-75; protein details: His tag (pET28a), thrombin-treated
T4 sequence (looked up): T1 sequence (looked up) with S35K

[5] = target: T5, caZαPKZ S35A/R39A/K56A (Carassius auratus) (UniProt Q7T2M9); assay: CD B-to-Z transition; conditions: group 3, slow rate measured; recombinant protein; residues 1-75; protein details: His tag (pET28a), thrombin-treated
T5 sequence (looked up): T1 sequence (looked up) with S35A, R39A, K56A

[6] = target: T6, caZαPKZ W60A (Carassius auratus) (UniProt Q7T2M9); assay: CD B-to-Z transition; conditions: activity almost completely abolished, misfolding possible; recombinant protein; residues 1-75; protein details: His tag (pET28a), thrombin-treated
T6 sequence (looked up): T1 sequence (looked up) with W60A

[7] = target: T1, caZαPKZ WT (Carassius auratus); assay: CD B-to-Z transition; conditions: full conversion at 4:1 protein/DNA; recombinant protein; residues 1-75; protein details: His tag (pET28a), thrombin-treated
[8] = target: T7, caZαPKZ S35A/R39A/K56A/P57A (Carassius auratus) (UniProt Q7T2M9); assay: CD B-to-Z transition; conditions: group 3 (appeared to lose activity); recombinant protein; residues 1-75; protein details: His tag (pET28a), thrombin-treated
T7 sequence (looked up): T1 sequence (looked up) with S35A, R39A, K56A, P57A

[9] = target: T8, caZαPKZ K34A (Carassius auratus) (UniProt Q7T2M9); assay: CD B-to-Z transition; conditions: recombinant protein; residues 1-75; protein details: His tag (pET28a), thrombin-treated
T8 sequence (looked up): T1 sequence (looked up) with K34A

[10] = target: T9, caZαPKZ S35A (Carassius auratus) (UniProt Q7T2M9); assay: CD B-to-Z transition; conditions: recombinant protein; residues 1-75; protein details: His tag (pET28a), thrombin-treated
T9 sequence (looked up): T1 sequence (looked up) with S35A

[11] = target: T10, caZαPKZ K56A (Carassius auratus) (UniProt Q7T2M9); assay: CD B-to-Z transition; conditions: slower transition rate than WT; recombinant protein; residues 1-75; protein details: His tag (pET28a), thrombin-treated
T10 sequence (looked up): T1 sequence (looked up) with K56A

[12] = target: T11, caZαPKZ K56T (Carassius auratus) (UniProt Q7T2M9); assay: CD B-to-Z transition; conditions: slower than WT; recombinant protein; residues 1-75; protein details: His tag (pET28a), thrombin-treated
T11 sequence (looked up): T1 sequence (looked up) with K56T

[13] = target: T12, caZαPKZ N38A (Carassius auratus) (UniProt Q7T2M9); assay: CD B-to-Z transition; conditions: recombinant protein; residues 1-75; protein details: His tag (pET28a), thrombin-treated
T12 sequence (looked up): T1 sequence (looked up) with N38A

hZαDAI (human) = target: T13, hZαDAI (human) (UniProt Q9H171); assay: CD B-to-Z transition; conditions: recombinant protein
T13 sequence (looked up, limits assumed): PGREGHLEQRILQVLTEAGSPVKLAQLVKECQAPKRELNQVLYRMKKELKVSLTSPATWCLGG

[14] = target: T14, caZαPKZ S35K/K56T (Carassius auratus) (UniProt Q7T2M9); assay: CD B-to-Z transition; conditions: slower than WT; recombinant protein; residues 1-75; protein details: His tag (pET28a), thrombin-treated
T14 sequence (looked up): T1 sequence (looked up) with S35K, K56T

[15] = target: T15, caZαPKZ R39A/K56A/P57A (Carassius auratus) (UniProt Q7T2M9); assay: CD B-to-Z transition; conditions: no detectable B-to-Z transition activity; recombinant protein; residues 1-75; protein details: His tag (pET28a), thrombin-treated
T15 sequence (looked up): T1 sequence (looked up) with R39A, K56A, P57A

[16] = target: T16, caZαPKZ Y42A (Carassius auratus) (UniProt Q7T2M9); assay: CD B-to-Z transition; conditions: activity almost completely abolished, misfolding possible; recombinant protein; residues 1-75; protein details: His tag (pET28a), thrombin-treated
T16 sequence (looked up): T1 sequence (looked up) with Y42A

| Sequence | binding result [1] | binding result [2] | binding result [3] | binding result [4] | binding result [5] | binding result [6] | binding result [7] | binding result [8] | binding result [9] | binding result [10] | binding result [11] | binding result [12] | binding result [13] | binding result (hZαDAI (human)) | binding result [14] | binding result [15] | binding result [16] |
| --- | --- | --- | --- | --- | --- | --- | --- | --- | --- | --- | --- | --- | --- | --- | --- | --- | --- |
| TCGCGCG / TCGCGCG [ds-dT(dCdG)3] | binds | – | – | – | – | – | – | – | – | – | – | – | – | – | – | – | – |
| CGCGCGCGCGCG (double strand) [ds-(dCdG)6] | – | binds | binds | binds | binds more weakly | binds more weakly | binds | no binding | binds more weakly | binds | binds | binds | binds more weakly | binds | binds | no binding | binds more weakly |
